PubChem BioAssay AID1259308, NCATS, 2017

Purpose: 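Knock-downs that increase output of a recombinant reporter protein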 (primary screen)
Cell system: human HEK293 embryonic kidney cells stably expressing firefly luciferase (HEK-CMV-Luc2-Hygro)
Reagent: single siRNA against human genes, 0.8 pmol siRNA per well
Timing: 72 h
Measurement: 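Reporter luminescence and viable-cell signal on separate replicate plates, given as percent of non-targeting control and median/MAD z-scores, plus per-cell luciferase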
Scale: total luciferase, z-score and total luciferase, % of control: higher = more reporter protein produced; luciferase per cell, z-score: higher = more reporter output per viable cell; viable cells, % of control: higher = more viable cells
Active means: 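Active when the median/MAD z-score for overall luciferase is greater than 3; a gene was taken forward for validation with new siRNAs if at least two of its three siRNAs passed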
Meaning of the calls: active = raised luciferase; inactive = no rise
Here is an unselected part of about 59,000 reagents. Of all reagents, about 1,510 (2.6%) got an active call. 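Calls use total luciferase alone and ignore viability, so some active siRNAs may act by altering cell number.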 Entries without a mark were called inactive. The numbers tell different reagents against one gene apart.

target | reagent no. | total luciferase, z-score | total luciferase, % of control | luciferase per cell, z-score | viable cells, % of control
ATF1 | 1 | 0.0764 | 83.4 | -0.428 | 104
ATF1 | 2 | -0.381 | 74.3 | -0.936 | 106
ATF1 | 3 | 1.31 | 108 | 0.161 | 116
LINC01114 | 1 | 1.49 | 112 | 1.63 | 81.1
LINC01114 | 2 | -0.756 | 66.9 | -0.0557 | 75.8
LINC01114 | 3 | -0.71 | 67.8 | -0.707 | 91.2
ARRDC1-AS1 | 1 | 0.95 | 101 | 0.607 | 96
ARRDC1-AS1 | 2 | 0.836 | 98.5 | 0.366 | 100
ARRDC1-AS1 | 3 | -0.706 | 67.8 | -1.02 | 99.1
RNPEP | 1 | 1.06 | 103 | -0.0518 | 117
RNPEP | 2 | -0.0649 | 80.6 | -0.371 | 99.3
RNPEP | 3 | -1.39 | 54.1 | -1.25 | 84
OR52A5 | 1 | 0.811 | 98 | 1.44 | 75
OR52A5 | 2 | -0.072 | 80.5 | -0.578 | 105
OR52A5 | 3 | 0.639 | 94.6 | 1.88 | 64.5
DLD | 1 | -0.372 | 74.5 | -0.314 | 90.4
DLD | 2 | -0.718 | 67.6 | -0.169 | 79
DLD | 3 | -1.15 | 59.1 | -0.849 | 82.6
GALNT7 | 1 | -1.05 | 61 | -1.24 | 94.7
GALNT7 | 2 | -0.164 | 78.6 | -0.0737 | 89.6
GALNT7 | 3 | 0.861 | 99 | 0.573 | 95.1
VBP1 | 1 | -0.169 | 78.5 | -0.0937 | 89.9
VBP1 | 2 | -0.784 | 66.3 | -1.08 | 98.4
VBP1 | 3 | -0.407 | 73.8 | -0.199 | 86.9
C5orf63 | 1 | 3.31 (active) | 148 | 3.11 | 72.8
C5orf63 | 2 | -2.6 | 30.2 | -2.5 | 65.3
C5orf63 | 3 | 0.74 | 96.6 | 1.32 | 76.3
IKZF5 | 1 | 0.907 | 99.9 | 0.944 | 87.1
IKZF5 | 2 | -0.822 | 65.5 | 0.473 | 64.7
IKZF5 | 3 | 0.529 | 92.4 | 0.131 | 99.8
MAX | 1 | 2.41 | 130 | 2.39 | 77.2
MAX | 2 | -1.42 | 53.6 | -0.76 | 73.1
MAX | 3 | 0.131 | 84.5 | 0.991 | 72.7
OR4K1 | 1 | -0.646 | 69 | -0.676 | 92.2
OR4K1 | 2 | 0.713 | 96.1 | 0.817 | 86.6
OR4K1 | 3 | -1.68 | 48.5 | -0.892 | 68.6
HP1BP3 | 1 | 1.14 | 105 | 0.677 | 97.8
HP1BP3 | 2 | 2.29 | 127 | 1.49 | 96.2
HP1BP3 | 3 | 0.809 | 98 | 0.0957 | 107
